Measurements reported in article PMC4915166.
Results are given in words; binding and its absence hold for the method and conditions named. For some of these results: Binding seen in cells or lysates may run through a third protein. Some results given as binding are weak or reduced against the parent protein; the word gives no strength.

Legend:
[1] = target: gp91^phox, the catalytic subunit of NADPH oxidase (Nox2) (mouse (endogenous in mouse microglia)) (UniProt Q61093); test: confocal microscopy of FITC-labelled peptide on cells; FITC-labeled peptide incubated with WT or gp91phox-/- mouse microglia (legend: on ice for 30 min; methods: cells fixed, permeabilised and stained for gp91phox beforehand); only the binder purified
[2] = target: gp91^phox, the catalytic subunit of NADPH oxidase (Nox2) (mouse (endogenous in mouse microglia)) (UniProt Q61093); test: co-IP; Flag-fused synthetic peptide mixed with WT mouse microglial (or mixed glial) lysate in a cold room overnight; goat anti-gp91phox polyclonal antibody or control IgG on protein G magnetic beads, RT 30 min; blots for Flag, gp91phox, tubulin; gp91phox-/- lysate as control; only the binder purified

Substance	binding [1]	binding [2]
FITC-labeled A19-A30 α-Syn peptide (from UniProt P37840 19-30)	no binding	
FITC-labeled A29-V40 α-Syn peptide (from UniProt P37840 29-40)	binds	
Flag-tagged A19-A30 α-Syn control peptide (WT) (from UniProt P37840 19-30)		no binding
Flag-tagged A29-V40 α-Syn peptide (WT) (from UniProt P37840 29-40)		binds
